Experimental data: PubChem BioAssay AID1259308 (NCATS, 2017)
Screen: 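Candidate targets for better recombinant protein yield in mammalian cells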 (primary screen). Cells: human HEK293 embryonic kidney cells stably expressing firefly luciferase (HEK-CMV-Luc2-Hygro). Reagents: single siRNA against human genes, 0.8 pmol siRNA per well. Duration: 72 h. Detection: 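Reporter luminescence and viable-cell signal on separate replicate plates, given as percent of non-targeting control and median/MAD z-scores, plus per-cell luciferase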. Reading the numbers: total luciferase, z-score: higher = more reporter protein produced. Hit rule: 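Active when the median/MAD z-score for overall luciferase is greater than 3; a gene was taken forward for validation with new siRNAs if at least two of its three siRNAs passed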. Calls: active = raised luciferase; inactive = no rise.
Here is a random part of about 59,000 deposited reagents. About 1,510 of all reagents (2.6%) count as active. 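Calls use total luciferase alone and ignore viability, so some active siRNAs may act by altering cell number.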 Entries without a mark were called inactive. The numbers tell different reagents against one gene apart. Not all columns of the deposit are shown. No sequences are given here.

For ZNF707 #1, what does the deposit list?
total luciferase, z-score: -0.739

Which result is listed for ZNF707 #2?
total luciferase, z-score: -0.388

Which result is listed for ZNF707 #3?
total luciferase, z-score: -1.46

For GAS7 #1, what was measured?
total luciferase, z-score: -0.578

Which result is listed for GAS7 #2?
total luciferase, z-score: 1.76

Which result is listed for GAS7 #3?
total luciferase, z-score: -0.267

Sorted by “total luciferase, z-score” (lowest first): some entries from above
GAS7 #3: total luciferase, z-score = -0.267
GAS7 #2: total luciferase, z-score = 1.76

Continued.
For GBA1 #1, how do the results read?
total luciferase, z-score: -0.443

Which result is listed for GBA1 #2?
total luciferase, z-score: 0.351

How did the screen score GBA1 #3?
total luciferase, z-score: -1.08

What did the screen give for MRPL42 #1?
total luciferase, z-score: 1.35

With MRPL42 #2, what does the deposit list?
total luciferase, z-score: -0.155

With MRPL42 #3, how do the results read?
total luciferase, z-score: -0.629
